One series deals with CYP3A4. Conditions: rat, microsomes, 2 h.
The next series is described as follows: in vivo. Conditions: male, Wistar, rat, plasma, po, 12.5 mg/kg.
The nature of series [1]: AM oral bioavailability and blank nano-lipospheres co-administration PK studies. Conditions: PO 12.5 mg/kg AM, rats.

Structures can show the parent of a compound that is named as a salt.

One may read the AUC as concentration integrated over time. High values mean high exposure, low ones low exposure. What is called CL/F is clearance divided by bioavailability, as obtained after extravascular dosing. Usually Cmax stands for the maximum level reached in the sampled fluid or tissue. `CCCCc1oc2ccccc2c1C(=O)c1cc(I)c(OCCN(CC)CC)c(I)c1` [AM, Amiodarone HCl]: the “intact AM concentrations remaining” value in the series with CYP3A4 is 68.57±1.17%. Moreover, in the series “in vivo”, the AUC is 4540 ± 2600 ng·h/mL, the CL/F is 40.2 mL/min/kg and the Cmax was determined as 360 ± 70 ng/mL. In addition, the “V/F” value in series [1] amounted to 34.32 ± 5.447 L/kg.

For the origin of these results see US12161763B2, “Formulation and method for increasing oral bioavailability of drugs” (Yissum Research Development Company of the Hebrew …, priority 2012, dated 2024).
